Measured values reported in doi:10.1101/751974.
No constants are given. Whether binding was seen depends on the method and setting. In cells and extracts the contact can be indirect. These calls come from enrichment with a bait or labelling near it, and not all partners need be listed. For part of these data: Tags and fused reporters may be left off the sequences shown.

The chains behind the UniProt entries cited, without tags or fusion partners.
UniProt P15927: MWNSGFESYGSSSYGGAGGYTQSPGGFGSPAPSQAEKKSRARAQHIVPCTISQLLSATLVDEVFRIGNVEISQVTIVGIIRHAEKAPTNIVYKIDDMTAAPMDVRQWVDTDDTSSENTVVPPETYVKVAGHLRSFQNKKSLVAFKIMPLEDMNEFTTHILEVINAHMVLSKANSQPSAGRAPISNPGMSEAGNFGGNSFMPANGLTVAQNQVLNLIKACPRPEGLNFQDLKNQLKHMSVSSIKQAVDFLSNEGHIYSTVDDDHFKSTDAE
UniProt P27694: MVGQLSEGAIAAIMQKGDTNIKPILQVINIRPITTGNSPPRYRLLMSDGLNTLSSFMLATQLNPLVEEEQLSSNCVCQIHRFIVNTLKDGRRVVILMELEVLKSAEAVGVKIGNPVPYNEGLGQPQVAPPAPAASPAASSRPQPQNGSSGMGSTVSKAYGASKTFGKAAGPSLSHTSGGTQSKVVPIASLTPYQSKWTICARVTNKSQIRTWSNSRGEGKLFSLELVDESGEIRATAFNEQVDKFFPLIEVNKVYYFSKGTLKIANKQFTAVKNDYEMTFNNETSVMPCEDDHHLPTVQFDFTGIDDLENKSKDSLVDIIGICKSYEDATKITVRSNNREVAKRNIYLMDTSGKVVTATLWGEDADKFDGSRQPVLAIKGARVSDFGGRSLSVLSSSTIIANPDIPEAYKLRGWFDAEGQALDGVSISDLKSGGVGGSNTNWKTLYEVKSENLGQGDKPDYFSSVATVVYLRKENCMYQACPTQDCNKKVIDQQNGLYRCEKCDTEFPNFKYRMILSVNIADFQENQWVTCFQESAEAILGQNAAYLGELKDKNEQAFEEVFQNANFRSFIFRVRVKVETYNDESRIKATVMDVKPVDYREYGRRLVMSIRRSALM

What was measured:
MCM8IP-HA (human) = biological target: T1, MCM8IP-HA (human) (UniProt Q8N3J3); assay: affinity purification with mass spectrometry
T1 sequence: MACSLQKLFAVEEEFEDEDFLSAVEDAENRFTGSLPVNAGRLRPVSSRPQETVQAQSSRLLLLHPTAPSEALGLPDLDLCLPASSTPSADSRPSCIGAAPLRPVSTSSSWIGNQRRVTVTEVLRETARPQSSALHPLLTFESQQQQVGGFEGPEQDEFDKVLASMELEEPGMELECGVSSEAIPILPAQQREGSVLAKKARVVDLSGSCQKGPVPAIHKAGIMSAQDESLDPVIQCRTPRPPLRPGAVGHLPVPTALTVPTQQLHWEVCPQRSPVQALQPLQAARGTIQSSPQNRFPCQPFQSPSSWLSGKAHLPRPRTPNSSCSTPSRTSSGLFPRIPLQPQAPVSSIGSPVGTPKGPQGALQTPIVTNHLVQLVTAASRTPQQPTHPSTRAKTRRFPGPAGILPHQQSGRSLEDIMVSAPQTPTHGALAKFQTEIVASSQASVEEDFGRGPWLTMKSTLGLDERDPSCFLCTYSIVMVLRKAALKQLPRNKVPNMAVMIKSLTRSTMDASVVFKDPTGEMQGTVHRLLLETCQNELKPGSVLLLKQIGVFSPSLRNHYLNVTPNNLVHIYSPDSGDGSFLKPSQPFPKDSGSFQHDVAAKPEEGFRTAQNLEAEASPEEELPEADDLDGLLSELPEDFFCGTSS

MCM8IP-BirA* (human) = biological target: T2, MCM8IP-BirA* (human) (UniProt Q8N3J3); assay: proximity labelling
T2 sequence: T1 sequence

BirA*-MCM8IP (human) = biological target: T3, BirA*-MCM8IP (human) (UniProt Q8N3J3); assay: proximity labelling
T3 sequence: T1 sequence

Measured: binding

RPA2, endogenous (from UniProt P15927 1-270)
binds: all assays above

RPA1, endogenous (from UniProt P27694 1-616)
binds: all assays above
